Measurements as given in PubChem BioAssay AID1508600 (Functional Genomics Laboratory (NCATS/FGL), 2020).
Screen size: about 53,000 sequences; about 3,700 (7%) were called active.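 How the source made its calls: active means gene knockdowns whose robust z-score for IL-1 alpha signal is at least 2 or at most -2, so actives lie on both sides; inactive means the rest.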 The list shows a part of the results.

Assay: Components of the Cytosolic LPS Sensing Pathway: Gene Identification via Genome-wide siRNA Screen;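 further: robust z of the log signal after scaling to non-targeting control siRNA wells of the plate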
Conditions: RAW264.7 macrophages, IL-1a HTRF, actives lie on both sides, screened at 100 nM (by protocol), cells primed 5 h with Pam3CSK4 first
Outline: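 Using IL-1a HTRF as read-out, the screen measured release from RAW264.7 cells after 48h siRNA knockdown (100 nM), 5 h Pam3CSK4 priming and 24 h cytosolic LipidA. Values were expressed relative to negative-control wells as robust z-scores.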

Row | Sequence | z-score
1 | GGCCUACUACAUUUUGUCATT against Edrf1 | inactive: -0.342
2 | GGUUACAUUUCGUACAAGATT against Ube2e1 | inactive: -0.638
3 | CCUUACUCAUCUCAACUUATT against Phlpp1 | inactive: -0.396
4 | GGGCUAUGUACCCUAUAAUTT against Eps8l1 | inactive: -1.37
5 | CCCUAUGCUAUGCCUGAGUTT against Ampd3 | inactive: -1.63
6 | GGAGCUGGACAAGUUCAUGTT against Clrn1 | inactive: -0.994
7 | GGGAUAUCCGCCAUAAUUUTT against Pigm | inactive: -0.0716
8 | GGAGAACCUGAUGAAGAAGTT against Rai1 | inactive: -0.664
9 | CCUCGAGUCACCAACAUCGTT against Stt3b | active: -2.46
10 | GGAUUUGCUGAUUUGUCAATT against Mtfr2 | inactive: 0.46
11 | GCGAAAGAAGCACGUACCATT against Kcnc4 | inactive: 0.176
12 | GGUCAACUGAAGAAGAACATT against Trmt10a | inactive: 1.56
13 | GGUGAUUUUGUUGACAUAATT against Uri1 | inactive: 0.178
14 | GGGAGACCGGCAAAAAAAATT against Pde1b | inactive: 0.999
15 | CCCAUGGGUUUUUAAUUGATT against Ptgdr | inactive: -0.578
16 | GCUUACAAGUACAAAAAUGTT against Smarcc1 | inactive: 0.378
17 | GGGUCUAAGGGUUCCGUUATT against Abhd15 | inactive: -0.916
18 | GGUCAUCCUUGCCAAUCUCTT against Olfr686 | active: -2.11
19 | GGUCUCUUCUAUUUUUACATT against Agps | inactive: -0.367
20 | GGCAAUUUCUAAACAGGGATT against Atp6v1f | active: -2.01
21 | GCUUUAUUGACACGACCCGTT against Rbm19 | inactive: 0.184
22 | GCUUCAAUGACACCAGAAUTT against 6430571L13Rik | inactive: -0.511

Row | Sequence | z-score
23 | GGAAGUAGAGAUCUCCUUATT against Btn1a1 | inactive: 0.96
24 | GCAGAAAGAGAAUCUCCCGTT against Trp53bp2 | inactive: 0.0521
25 | CCAGGAACACUAAUAACACTT against Akr1b10 | inactive: 0.314
26 | GCCAACCUUCAAGGAAUAUTT against Cyp2b10 | inactive: 1.4
27 | CCGGUGAACCCUAUAAAUATT against Ighg3 | inactive: 0.183
28 | GGAAAAUUUGCCUGGACCGTT against Pf4 | inactive: 0.408
29 | GGGAAUAGUUUAUAUGGACTT against Ccl20 | inactive: 0.315
30 | GGUGAGUUUUGCUAAAAGUTT against Syp | inactive: 0.783
31 | GGAUGUGUGUGUCUCCUCATT against Prr9 | inactive: -0.256
32 | GGUCUAUUGAAAAAUAGGATT against Dock7 | inactive: -0.0138
33 | GGCAACAGUUCACAAACCATT against Zfp263 | inactive: -0.616
34 | GGAUAUCUAAUGUUAGAAGTT against Nim1k | inactive: -0.556
35 | GGAUGAACACAAAGAACCCTT against Serpinb12 | inactive: -0.156
36 | GGUCACUGUAAUGAUUUAUTT against Klhdc1 | inactive: 0.839
37 | GGAAUACUUCCUGAAGGAATT against Ms4a3 | inactive: 0.413
38 | GCAGAAAGCACACUCCUACTT against Psors1c2 | active: -2.02
39 | GGAUAUCGAGGAUGUACUGTT against Micu2 | inactive: -0.339
40 | CCAGAAACCAAUCUUUCUUTT against Serpinb1a | inactive: -0.0285
41 | GCACAGGCUUAUGUUCCACTT against Vmn1r181 | inactive: -0.695
42 | GGUGUUUACCUGUGACGAGTT against Zbtb49 | inactive: -1.25
43 | GGAGUUUGAACAUAUGAAGTT against Rcn1 | inactive: -0.417
44 | GGAAUUGUUGUCAACAAUCTT against BC005537 | inactive: 0.151

Row | Sequence | z-score
45 | GGUGGACGUACUUUUUAACTT against Gata3 | active: 2.59
46 | GGUUGUGAUGUGGUGGUCATT against Mdh2 | inactive: 1.3
47 | GGGCUUGAUUGUGAAAGAATT against Tlr12 | inactive: -1.82
48 | CGAAAGUACCAUGCCUACATT against Clec5a | inactive: 1.09
49 | CCUUCCCUAAGAUCAGGCGTT against Gsdma3 | inactive: -0.287
50 | GCACCGUUCAAGAAAUCGATT against Isoc1 | inactive: 0.969
51 | CCGAUUUCCACAUCUGUCATT against Fam104a | active: -2.45
52 | GUAUUAUUCCGUUCCUACUTT against Olfr392 | inactive: 1.57
53 | CGAAAAACGACACGUAAAATT against Dnmt1 | inactive: -0.499
54 | CGUAAUGGAGACUACCGAATT against Syn1 | inactive: 0.1
55 | GGAGAGGAGAUUCAGUACATT against Otc | inactive: 0.768
56 | GGUAGAUUGCCAACAGUGCTT against Rap1a | inactive: 0.952
57 | GUGGAAAACAAGUGGCGGUTT against Cox7c | inactive: 0.241
58 | GCCAUAUUGCUGUUUGCAATT against Cfap299 | inactive: -1.16
59 | GGCGUGUUUUUGGAGUGCCTT against Vps8 | inactive: -1.48
60 | GACCCUGUCCUACAUGUUATT against Rtl8c | inactive: -1.52
61 | GGCCAUGAUAGCUGUGUUUTT against Wdr6 | inactive: -0.469
62 | GCGUAUUGAUAUAAGCUCUTT against Erc2 | inactive: -0.484
63 | GGGCAACCUGGUUACACAUTT against Zfp637 | inactive: 1.25
64 | GGCUGAAUGACUACGUGUGTT against Cldn14 | inactive: 1.55
65 | GGAAGAAAUGAUAAAUGCATT against Itgbl1 | inactive: 0.747
66 | GGUGGAAAGAUCAACAGACTT against Tpst1 | inactive: -1.31

Row | Sequence | z-score
67 | GGAAGUUAUUGCCAGCGAGTT against Fbxo5 | inactive: -0.418
68 | GGAAUCAAUGGGAUAUUUUTT against Slc2a2 | inactive: 0.964
69 | GGCCUUUGCCAACAGGUCATT against Zfp27 | inactive: 0.714
70 | CCAAACCAUAUGGAGAAGGTT against Stn1 | inactive: -1.35
71 | CCCUCAUGACAGCUUCGCATT against Wdr59 | inactive: -1.01
72 | CCAGGAAGAGAACUAUAAUTT against Tmem232 | inactive: 0.721
73 | CGAGAUGUGUGUUAAAGGATT against Utp23 | inactive: 0.934
74 | CCACUUUCGCUUUACCAAUTT against C330011M18Rik | inactive: 0.873
75 | GGAGGUCCAGCUGUUCAUGTT against Kcnn4 | inactive: 0.464
76 | GGAAACAACUUUCUAUAACTT against Vmn1r195 | inactive: -0.487
77 | CCAGAUUGGUGAUGGUAGUTT against Gm4425 | inactive: 1.19
78 | GGUAAUUAUCUUGUUGUCATT against Sacm1l | inactive: -1.29
79 | GCCCGUAUAGGUAUUGGUCTT against Mpg | active: 2.06
80 | GCCGGCCAGAAUAUACAUUTT against Fndc10 | inactive: 0.415
81 | GGGACAAAUUGUCCAAAUGTT against Trpc4ap | inactive: 1.47
82 | CCCAGUUAGUGAGACUUACTT against Gabrg3 | inactive: -1.29
83 | CCUAGCUAUGCUUUUGGCATT against Fkbp4 | inactive: -1.43
84 | GCUGAUGGUAUAAAAGUAGTT against Glud1 | inactive: 1.07
85 | GCACUUUAAUCUGGCUACCTT against Dnmt3b | inactive: -0.78
86 | GGCCAUUUUUCUAGUGCUUTT against 1110038F14Rik | inactive: -0.391
87 | GGCAGUACCACUUGUCUUATT against Dynlt1b | inactive: -0.084
88 | GGCUGUGGACUCUGCAUGUTT against Wnk4 | inactive: -1.01

Numbers 76–79, reprinted for reference:
Row | Sequence | z-score
76 | GGAAACAACUUUCUAUAACTT against Vmn1r195 | inactive: -0.487
77 | CCAGAUUGGUGAUGGUAGUTT against Gm4425 | inactive: 1.19
78 | GGUAAUUAUCUUGUUGUCATT against Sacm1l | inactive: -1.29
79 | GCCCGUAUAGGUAUUGGUCTT against Mpg | active: 2.06

Some of the entries above, reformatted:
Row,Sequence,z-score
84,GCUGAUGGUAUAAAAGUAGTT against Glud1,inactive: 1.07
85,GCACUUUAAUCUGGCUACCTT against Dnmt3b,inactive: -0.78

(next part)

Row | Sequence | z-score
89 | GCCAGUUCUAGAAAUACCATT against 8430429K09Rik | inactive: 0.149
90 | GGACUCCAAGUCGCUCGUATT against Armc9 | inactive: 1.62
91 | GGGAACAGCAUGAAGGAAGTT against Krt78 | inactive: 0.688
92 | GCAGGCUGCUCGAGAUAAATT against Dcp1a | inactive: 1.02
93 | GCCAACAAGCAUUCCAUUGTT against Mrap | inactive: -0.991
94 | GCUGAUUAACCCUCAGUAUTT against Gpc6 | inactive: -0.531
95 | GGUAGUGUCUGUAUUCUACTT against Olfr508 | inactive: -1.12
96 | GGGUGUCUUCUUGAACUGGTT against Lrit2 | inactive: 0.914
97 | GGGAUAAAUAUGAAGAAAGTT against Tacc2 | inactive: -1.46
98 | GCUGGAAAGUAGUUCAGUGTT against 4930583K01Rik | inactive: 1.47
99 | GCUCGAAAUGACGUGUACATT against Gnl1 | inactive: 0.858
100 | GCACAUGCCAUACAACCAUTT against Fads1 | inactive: 0.655
101 | ACGACCUAUACCUCAGACCTT against Cebpd | inactive: -0.0955
102 | GGAUUGUCAGAGAAAGAGATT against Syt3 | inactive: -0.751
103 | CCAUUGAGGCUACGAAAGCTT against Nefl | inactive: 0.587
104 | GGAAACUUAAAGUGAAGGATT against Rbm28 | inactive: 0.398
105 | GCUUUUUCUCUUUGCACUGTT against Olfr826 | inactive: 0.791
106 | GGCCUGGUAAAGUUAGUAATT against Wdr20rt | inactive: 0.615
107 | GGAAACUUAUCCCUACUCATT against Tal2 | inactive: -0.386
